{"sequences": {"note": "Amino acid sequences for entries named in this document (tags omitted). Residues count along the entry.", "UniProt P17427": "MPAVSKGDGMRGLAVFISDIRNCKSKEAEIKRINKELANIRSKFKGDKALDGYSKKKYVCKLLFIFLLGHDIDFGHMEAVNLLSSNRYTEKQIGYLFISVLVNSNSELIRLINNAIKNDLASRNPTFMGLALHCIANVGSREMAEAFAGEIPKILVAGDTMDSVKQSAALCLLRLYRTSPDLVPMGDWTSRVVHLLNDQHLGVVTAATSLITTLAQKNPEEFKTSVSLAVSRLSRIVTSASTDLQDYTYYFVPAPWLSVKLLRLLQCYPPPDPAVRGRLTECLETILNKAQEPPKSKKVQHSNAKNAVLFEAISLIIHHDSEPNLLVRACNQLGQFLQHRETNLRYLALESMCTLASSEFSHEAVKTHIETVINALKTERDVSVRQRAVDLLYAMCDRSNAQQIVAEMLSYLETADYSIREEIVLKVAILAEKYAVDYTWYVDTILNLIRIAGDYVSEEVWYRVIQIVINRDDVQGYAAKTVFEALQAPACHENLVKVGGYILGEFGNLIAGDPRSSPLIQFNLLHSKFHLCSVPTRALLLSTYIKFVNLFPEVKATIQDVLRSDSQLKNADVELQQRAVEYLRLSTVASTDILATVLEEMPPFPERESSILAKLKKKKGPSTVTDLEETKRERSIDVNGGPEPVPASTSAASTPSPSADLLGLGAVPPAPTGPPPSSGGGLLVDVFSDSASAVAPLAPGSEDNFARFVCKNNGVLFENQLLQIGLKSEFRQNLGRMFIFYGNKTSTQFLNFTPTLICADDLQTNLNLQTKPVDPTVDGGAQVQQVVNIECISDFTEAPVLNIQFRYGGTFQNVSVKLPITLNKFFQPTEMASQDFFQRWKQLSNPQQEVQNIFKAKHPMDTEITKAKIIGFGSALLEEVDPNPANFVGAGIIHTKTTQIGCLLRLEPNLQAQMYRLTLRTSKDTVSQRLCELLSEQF", "UniProt Q9Z2H5": "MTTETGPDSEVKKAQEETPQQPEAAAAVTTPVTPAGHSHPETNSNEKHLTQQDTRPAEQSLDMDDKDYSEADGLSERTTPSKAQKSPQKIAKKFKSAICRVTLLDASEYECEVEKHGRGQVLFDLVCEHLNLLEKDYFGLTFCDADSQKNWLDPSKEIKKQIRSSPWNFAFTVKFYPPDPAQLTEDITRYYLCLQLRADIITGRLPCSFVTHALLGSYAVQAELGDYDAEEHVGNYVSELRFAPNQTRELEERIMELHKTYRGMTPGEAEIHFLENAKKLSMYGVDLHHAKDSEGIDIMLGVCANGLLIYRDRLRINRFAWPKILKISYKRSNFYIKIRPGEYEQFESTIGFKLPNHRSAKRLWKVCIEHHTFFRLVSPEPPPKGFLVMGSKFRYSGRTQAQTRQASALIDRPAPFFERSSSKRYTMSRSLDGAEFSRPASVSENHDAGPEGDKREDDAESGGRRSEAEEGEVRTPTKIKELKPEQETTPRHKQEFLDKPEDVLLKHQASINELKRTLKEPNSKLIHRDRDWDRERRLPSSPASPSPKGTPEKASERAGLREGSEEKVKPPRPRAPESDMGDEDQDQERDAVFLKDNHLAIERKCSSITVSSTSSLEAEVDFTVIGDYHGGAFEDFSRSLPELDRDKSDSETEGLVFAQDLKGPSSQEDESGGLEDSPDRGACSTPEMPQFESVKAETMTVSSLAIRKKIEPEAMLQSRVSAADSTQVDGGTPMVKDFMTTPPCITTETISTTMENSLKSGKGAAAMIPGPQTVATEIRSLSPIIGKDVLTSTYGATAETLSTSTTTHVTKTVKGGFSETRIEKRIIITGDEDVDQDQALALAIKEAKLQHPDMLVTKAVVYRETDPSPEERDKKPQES", "UniProt Q60737": "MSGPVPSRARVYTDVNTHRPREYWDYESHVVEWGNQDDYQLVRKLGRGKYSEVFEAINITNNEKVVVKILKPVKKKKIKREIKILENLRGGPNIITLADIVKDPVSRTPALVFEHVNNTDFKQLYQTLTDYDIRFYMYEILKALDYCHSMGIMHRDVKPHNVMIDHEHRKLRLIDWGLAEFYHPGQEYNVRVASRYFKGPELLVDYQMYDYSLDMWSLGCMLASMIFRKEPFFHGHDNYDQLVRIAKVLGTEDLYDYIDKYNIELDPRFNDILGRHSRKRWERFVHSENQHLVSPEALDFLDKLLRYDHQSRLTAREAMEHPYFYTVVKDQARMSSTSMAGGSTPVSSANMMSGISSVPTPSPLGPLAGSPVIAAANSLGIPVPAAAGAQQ", "UniProt Q99KV1, residues 23-358": "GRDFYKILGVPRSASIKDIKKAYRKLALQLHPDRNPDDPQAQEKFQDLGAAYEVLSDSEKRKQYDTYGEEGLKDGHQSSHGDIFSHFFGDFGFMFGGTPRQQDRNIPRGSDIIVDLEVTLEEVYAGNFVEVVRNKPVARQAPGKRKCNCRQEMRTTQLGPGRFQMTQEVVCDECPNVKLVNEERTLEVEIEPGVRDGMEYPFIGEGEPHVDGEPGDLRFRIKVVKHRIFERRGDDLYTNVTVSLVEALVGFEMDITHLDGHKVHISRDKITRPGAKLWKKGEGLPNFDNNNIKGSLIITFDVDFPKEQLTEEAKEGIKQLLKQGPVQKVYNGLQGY", "UniProt Q8C863": "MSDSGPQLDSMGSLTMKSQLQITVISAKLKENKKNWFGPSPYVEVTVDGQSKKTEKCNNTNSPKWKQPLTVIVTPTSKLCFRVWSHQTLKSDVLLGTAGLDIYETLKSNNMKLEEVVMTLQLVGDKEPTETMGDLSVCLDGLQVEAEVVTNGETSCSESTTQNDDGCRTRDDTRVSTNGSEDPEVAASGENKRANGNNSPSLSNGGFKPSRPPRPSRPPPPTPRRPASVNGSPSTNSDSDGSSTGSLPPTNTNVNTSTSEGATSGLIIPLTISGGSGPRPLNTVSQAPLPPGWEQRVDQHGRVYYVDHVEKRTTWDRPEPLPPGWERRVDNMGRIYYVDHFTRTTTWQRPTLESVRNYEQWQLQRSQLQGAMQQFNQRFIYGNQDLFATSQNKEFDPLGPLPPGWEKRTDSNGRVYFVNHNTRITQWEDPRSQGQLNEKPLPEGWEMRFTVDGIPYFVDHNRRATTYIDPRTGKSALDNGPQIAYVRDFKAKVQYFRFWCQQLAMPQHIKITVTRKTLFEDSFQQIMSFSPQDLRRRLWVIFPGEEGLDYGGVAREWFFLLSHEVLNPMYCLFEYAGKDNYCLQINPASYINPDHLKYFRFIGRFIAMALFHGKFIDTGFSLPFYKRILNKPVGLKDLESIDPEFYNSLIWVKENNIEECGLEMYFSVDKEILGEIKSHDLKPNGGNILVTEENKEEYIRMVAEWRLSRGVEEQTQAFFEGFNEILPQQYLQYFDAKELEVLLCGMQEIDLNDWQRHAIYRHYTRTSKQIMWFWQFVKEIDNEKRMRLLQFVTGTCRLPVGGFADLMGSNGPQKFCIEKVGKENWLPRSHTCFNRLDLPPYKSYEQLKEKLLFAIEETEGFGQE", "UniProt P46935": "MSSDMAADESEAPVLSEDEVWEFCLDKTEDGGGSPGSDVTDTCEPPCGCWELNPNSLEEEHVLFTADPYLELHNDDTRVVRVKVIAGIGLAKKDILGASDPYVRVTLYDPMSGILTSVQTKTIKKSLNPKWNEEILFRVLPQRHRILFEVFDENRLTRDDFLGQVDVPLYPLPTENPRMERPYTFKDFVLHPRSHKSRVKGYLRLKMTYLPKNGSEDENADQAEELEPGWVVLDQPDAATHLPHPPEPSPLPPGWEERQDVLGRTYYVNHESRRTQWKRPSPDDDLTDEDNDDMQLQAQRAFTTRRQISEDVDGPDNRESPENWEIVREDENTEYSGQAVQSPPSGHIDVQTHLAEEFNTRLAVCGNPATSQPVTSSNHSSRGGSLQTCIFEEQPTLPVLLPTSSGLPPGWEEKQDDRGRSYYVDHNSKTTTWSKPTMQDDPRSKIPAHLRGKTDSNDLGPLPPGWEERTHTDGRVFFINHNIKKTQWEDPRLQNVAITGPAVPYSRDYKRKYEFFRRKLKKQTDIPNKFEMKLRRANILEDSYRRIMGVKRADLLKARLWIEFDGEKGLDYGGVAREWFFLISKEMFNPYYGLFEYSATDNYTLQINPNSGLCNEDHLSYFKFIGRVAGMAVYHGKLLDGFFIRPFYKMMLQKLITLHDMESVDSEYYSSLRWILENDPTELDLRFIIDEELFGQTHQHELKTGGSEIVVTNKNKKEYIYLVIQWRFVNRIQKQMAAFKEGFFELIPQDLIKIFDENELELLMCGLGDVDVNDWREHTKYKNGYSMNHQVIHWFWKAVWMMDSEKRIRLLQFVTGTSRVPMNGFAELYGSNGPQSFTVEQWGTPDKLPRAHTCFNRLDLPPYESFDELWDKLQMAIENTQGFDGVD", "UniProt Q9DBH0": "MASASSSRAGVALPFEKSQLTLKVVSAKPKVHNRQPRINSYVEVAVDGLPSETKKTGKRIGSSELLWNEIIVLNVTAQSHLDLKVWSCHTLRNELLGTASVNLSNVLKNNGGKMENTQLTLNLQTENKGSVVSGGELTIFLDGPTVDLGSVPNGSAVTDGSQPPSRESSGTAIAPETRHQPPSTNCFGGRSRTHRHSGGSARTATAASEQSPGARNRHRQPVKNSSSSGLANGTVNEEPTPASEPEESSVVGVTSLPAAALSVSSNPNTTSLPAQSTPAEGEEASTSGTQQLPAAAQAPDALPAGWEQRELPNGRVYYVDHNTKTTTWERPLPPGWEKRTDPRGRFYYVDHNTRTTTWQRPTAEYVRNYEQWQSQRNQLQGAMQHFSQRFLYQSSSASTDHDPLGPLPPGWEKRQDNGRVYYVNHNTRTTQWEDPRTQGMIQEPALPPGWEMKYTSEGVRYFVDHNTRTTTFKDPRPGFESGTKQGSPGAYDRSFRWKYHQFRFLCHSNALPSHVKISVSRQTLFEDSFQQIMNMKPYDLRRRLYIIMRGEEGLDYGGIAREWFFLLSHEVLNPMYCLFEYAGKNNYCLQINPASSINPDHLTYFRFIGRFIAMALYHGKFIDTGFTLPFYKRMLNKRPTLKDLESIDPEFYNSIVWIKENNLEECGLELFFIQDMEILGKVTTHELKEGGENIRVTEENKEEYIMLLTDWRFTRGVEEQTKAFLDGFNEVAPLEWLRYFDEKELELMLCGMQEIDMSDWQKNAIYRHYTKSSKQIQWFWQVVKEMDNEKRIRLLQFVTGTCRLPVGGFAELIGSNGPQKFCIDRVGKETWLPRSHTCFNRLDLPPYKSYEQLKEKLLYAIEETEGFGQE", "UniProt P27773, residues 25-505": "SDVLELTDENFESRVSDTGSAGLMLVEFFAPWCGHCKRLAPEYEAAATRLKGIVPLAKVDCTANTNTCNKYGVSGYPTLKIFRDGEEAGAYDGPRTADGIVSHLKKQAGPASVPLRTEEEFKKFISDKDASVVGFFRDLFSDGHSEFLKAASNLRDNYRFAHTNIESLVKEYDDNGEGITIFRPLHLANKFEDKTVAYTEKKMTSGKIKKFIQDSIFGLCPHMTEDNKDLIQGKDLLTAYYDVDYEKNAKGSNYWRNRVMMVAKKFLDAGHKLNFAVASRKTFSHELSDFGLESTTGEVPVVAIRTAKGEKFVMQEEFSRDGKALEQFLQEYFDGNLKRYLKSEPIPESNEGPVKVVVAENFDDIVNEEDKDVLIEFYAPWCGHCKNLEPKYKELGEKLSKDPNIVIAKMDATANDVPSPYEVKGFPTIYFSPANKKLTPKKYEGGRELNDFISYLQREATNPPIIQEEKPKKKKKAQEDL", "UniProt P47708": "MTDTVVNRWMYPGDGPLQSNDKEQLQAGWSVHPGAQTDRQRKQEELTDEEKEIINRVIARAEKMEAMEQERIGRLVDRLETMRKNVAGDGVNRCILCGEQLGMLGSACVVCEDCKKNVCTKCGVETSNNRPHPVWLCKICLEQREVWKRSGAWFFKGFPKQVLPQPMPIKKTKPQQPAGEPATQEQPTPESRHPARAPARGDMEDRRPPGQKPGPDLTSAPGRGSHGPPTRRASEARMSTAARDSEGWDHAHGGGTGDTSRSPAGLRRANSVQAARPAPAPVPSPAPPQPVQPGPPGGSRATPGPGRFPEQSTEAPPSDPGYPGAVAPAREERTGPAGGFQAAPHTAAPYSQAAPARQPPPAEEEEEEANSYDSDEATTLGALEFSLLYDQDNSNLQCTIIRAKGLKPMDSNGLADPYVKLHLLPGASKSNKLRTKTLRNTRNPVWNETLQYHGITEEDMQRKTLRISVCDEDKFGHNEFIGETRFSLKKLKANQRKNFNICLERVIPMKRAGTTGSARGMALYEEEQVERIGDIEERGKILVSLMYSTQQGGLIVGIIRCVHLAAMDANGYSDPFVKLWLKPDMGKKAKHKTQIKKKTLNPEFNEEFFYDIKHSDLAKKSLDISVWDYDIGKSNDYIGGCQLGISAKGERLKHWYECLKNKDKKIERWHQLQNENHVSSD"}, "source": "paper PMC7972451", "molecules": {"B1": {"name": "Long-chain fatty acid – CoA ligase 6 (protein, UniProt Q91WC3 1-697)", "chain": "MQTQEILRILRLPELSDLGQFFRSLSATTLVSVGALAAVLAYWLTHRPKALQPPCNLLKQSEEVEDGGGARRSVIGGCTQLLTHYYDDARTMYQVFRRGLSISGNGPCLGFRKPEQPYQWLSYQEVAKRAEFLGSGLLQHDCKVGTEQFVGVFAQNRPEWIIAELACYTYSMVVVPLYDTLGPGSISYIINTADICTVIVDKPHKATLLLEHVERKETPGLKLVILMEPFEDALRERGKKCGVDIKSMQAIEDCGRENHHAPVPPRPDDLSIVCFTSGTTGNPKGAMLTHGNVVADFSGFLKVTEKVIFPRQDDVLISFLPLAHMFERVIQSVVYCHGGRVGFFQGDIRLLSDDMKALRPTIFPVVPRLLNRMYDKIFHQADTSLKRWLLEFAAKRKQAEVRSGIIRNNSIWDELFFNKIQASLGGHVRMIVTGAAPASPTVLGFLRAALGCQVYEGYGQTECTAGCTFTTPGDWTSGHVGAPLPCNHIKLVDAEELNYWTCKGEGEICVKGPNVFKGYLKDEDRTKEALDSDGWLHTGDIGKWLPEGTLKIIDRKKHIFKLAQGEYVAPEKIENIYIRSEPVAQIYVHGDSLKAFLVGIVVPDPEVMPSWAQKKGIEGTYQELCMKKELKKAILDDMVMLGKESGLHSFEQVKAIYIHCDMFSVQNGLLTPTLKAKRPELREYFKKQIEELYLVSV"}, "B2": {"name": "Septin-5 (protein, UniProt Q9Z2Q6 1-369)", "chain": "MSTGLRYKSKLATPEDKQDIDKQYVGFATLPNQVHRKSVKKGFDFTLMVAGESGLGKSTLVHSLFLTDLYKDRKLLSAEERINQTVEILKHTVDIEEKGVKLKLTIVDTPGFGDAVNNSECWKPITDYVDQQFEQYFRDESGLNRKNIQDNRVHCCLYFISPFGHGLRPVDVGFMKALHEKVNIVPLIAKADCLVPSEIRKLKDRIREEIDKFGIHVYQFPECDSDEDEDFKQQDRELKESAPFAVIGSNTVVEAKGQRVRGRLYPWGIVEVENQAHCDFVKLRNMLIRTHMHDLKDVTCDVHYENYRAHCIQQMTSKLTQDSRMESPIPILPLPTPDAETEKLIRMKDEELRRMQEMLQKMKQQMQDQ"}, "B3": {"name": "Deoxyhypusine synthase (protein, UniProt Q3TXU5 1-369)", "chain": "MEGTPPGAAPSSALAAVLKHSSALPPESAQVQGYDFNRGVDYHALLDAYRTTGFQATNFGRAVQQVNAMIEKKLEPLAVDEDHHADLTQSRRPLTGCTIFLGYTSNLISSGIRETIRYLVQHNMVDVLVTTAGGVEEDLIKCLAPTYLGEFSLRGKELRESGINRIGNLLVPNDNYCKFEDWLMPILDQMVLEQNTEGVKWTPSKMISRLGKEINNPDSVYYWAHKNHIPVLSPALTDGSLGDMIFFHSYKNPGLVLDIVEDLRLINTQAIFAKRSGMIILGGGVVKHHIANANLMRNGADYAVYINTAQEFDGSDSGARPDEAVSWGKIRMDAQPVKVYADASLVFPLLVAETFAQKADAFRAEKNED"}, "B4": {"name": "Estradiol 17-beta-dehydrogenase 8 (protein, UniProt P50171 1-259)", "chain": "MASQLRLRSALALVTGAGSGIGRAISVRLAAEGAAVAACDLDGAAAQDTVRLLGSPGSEDGAPRGKHAAFQADVSQGPAARRLLEEVQACFSRPPSVVVSCAGITRDEFLLHMSEEDWDRVIAVNLKGTFLVTQAAAQALVSSGGRGSIINISSIIGKVGNIGQTNYASSKAGVIGLTQTAARELGRHGIRCNSVLPGFIATPMTQKMPEKVKDKVTAMIPLGHMGDPEDVADVVAFLASEDSGYITGASVEVSGGLFM"}, "B5": {"name": "Protein disulfide-isomerase A6 (protein, UniProt Q922R8 20-440)", "chain": "LYSSSDDVIELTPSNFNREVIQSDGLWLVEFYAPWCGHCQRLTPEWKKAATALKDVVKVGAVNADKHQSLGGQYGVQGFPTIKIFGANKNKPEDYQGGRTGEAIVDAALSALRQLVKDRLGGRSGGYSSGKQGRGDSSSKKDVVELTDDTFDKNVLDSEDVWMVEFYAPWCGHCKNLEPEWAAAATEVKEQTKGKVKLAAVDATVNQVLASRYGIKGFPTIKIFQKGESPVDYDGGRTRSDIVSRALDLFSDNAPPPELLEIINEDIAKKTCEEHQLCVVAVLPHILDTGAAGRNSYLEVLLKLADKYKKKMWGWLWTEAGAQYELENALGIGGFGYPAMAAINARKMKFALLKGSFSEQGINEFLRELSFGRGSTAPVGGGSFPTITPREPWDGKDGELPVEDDIDLSDVELDDLEKDEL"}}, "target": "T1, GFP-tagged SUSD4 (mouse) (UniProt Q8BH32)", "T1 sequence": "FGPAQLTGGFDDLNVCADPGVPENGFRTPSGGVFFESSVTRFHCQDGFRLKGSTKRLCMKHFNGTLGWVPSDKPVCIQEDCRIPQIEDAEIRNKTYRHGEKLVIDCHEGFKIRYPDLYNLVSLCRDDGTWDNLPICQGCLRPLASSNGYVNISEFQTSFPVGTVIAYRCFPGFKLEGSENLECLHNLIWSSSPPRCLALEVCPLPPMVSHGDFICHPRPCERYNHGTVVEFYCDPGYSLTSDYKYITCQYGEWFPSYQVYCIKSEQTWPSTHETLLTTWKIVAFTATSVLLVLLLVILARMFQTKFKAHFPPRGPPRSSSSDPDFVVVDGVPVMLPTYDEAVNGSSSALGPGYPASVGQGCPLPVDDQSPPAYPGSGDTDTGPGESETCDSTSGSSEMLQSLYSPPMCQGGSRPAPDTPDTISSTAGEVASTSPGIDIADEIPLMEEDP", "test": "affinity purification with mass spectrometry; GFP-SUSD4 from transfected HEK293H lysate held on GFP-Trap beads and washed, incubated 3 hr at 4°C with lysate of cerebellar synaptosomes of P30 WT mice (10 mM Tris-HCl pH 7.5, 10 mM EDTA, 150 mM NaCl, 1% Triton X100); washes with lysis buffer plus 0.1% SDS; SDS-PAGE and LC-MS/MS; GFP as control bait; only the target purified", "note": "These are yes or no findings as the source states them, for the method shown. In cells and extracts the contact can be indirect. These calls come from enrichment with a bait or labelling near it, and not all partners need be listed. Sequences can lack the tags named with a protein.", "data": [{"molecule": "AP-2 complex subunit alpha-2 (from UniProt P17427 1-938)", "values": [{"measurement": "binding", "result": "binds"}]}, {"molecule": "Band 4.1-like protein 1 (from UniProt Q9Z2H5 1-879)", "values": [{"measurement": "binding", "result": "binds"}]}, {"molecule": "Casein kinase II subunit alpha (from UniProt Q60737 1-391) (enzyme)", "values": [{"measurement": "binding", "result": "binds"}]}, {"molecule": "DnaJ homolog subfamily A member 1 (from UniProt P63037 1-397)", "values": [{"measurement": "binding", "result": "binds"}]}, {"molecule": "DnaJ homolog subfamily B member 11 (from UniProt Q99KV1 23-358)", "values": [{"measurement": "binding", "result": "binds"}]}, {"molecule": "E3 ubiquitin-protein ligase Itchy (from UniProt Q8C863 1-864) (enzyme)", "values": [{"measurement": "binding", "result": "binds"}]}, {"molecule": "E3 ubiquitin-protein ligase NEDD4 (from UniProt P46935 1-887) (enzyme)", "values": [{"measurement": "binding", "result": "binds"}]}, {"molecule": "E3 ubiquitin-protein ligase NEDD4-like (from UniProt Q8CFI0 1-1004) (enzyme)", "values": [{"measurement": "binding", "result": "binds"}]}, {"molecule": "Leucine-rich repeat-containing protein 47 (from UniProt Q505F5 1-581)", "values": [{"measurement": "binding", "result": "binds"}]}, {"molecule": "Microtubule-associated protein 4 (from UniProt P27546 1-1125)", "values": [{"measurement": "binding", "result": "binds"}]}, {"molecule": "NEDD4-like E3 ubiquitin-protein ligase WWP1 (from UniProt Q8BZZ3 1-918) (enzyme)", "values": [{"measurement": "binding", "result": "binds"}]}, {"molecule": "NEDD4-like E3 ubiquitin-protein ligase WWP2 (from UniProt Q9DBH0 1-870) (enzyme)", "values": [{"measurement": "binding", "result": "binds"}]}, {"molecule": "Protein disulfide-isomerase A3 (from UniProt P27773 25-505)", "values": [{"measurement": "binding", "result": "binds"}]}, {"molecule": "Rabphilin-3A (from UniProt P47708 1-681)", "values": [{"measurement": "binding", "result": "binds"}]}, {"molecule": "Septin-11", "values": [{"measurement": "binding", "result": "binds"}]}, {"molecule": "B1", "values": [{"measurement": "binding", "result": "binds"}]}, {"molecule": "B2", "values": [{"measurement": "binding", "result": "binds"}]}, {"molecule": "B3", "values": [{"measurement": "binding", "result": "binds"}]}, {"molecule": "B4", "values": [{"measurement": "binding", "result": "binds"}]}, {"molecule": "B5", "values": [{"measurement": "binding", "result": "binds"}]}]}
